From ChEMBL document CHEMBL3988442, “University of Dundee, Small-Polar-MMV Screening Library” (2021).

A: 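Phenotypic screen: M. tuberculosis growth, glucose 7H9 medium, 3 days; the read-out is not stated. Compounds at 50 µM. Higher reads as more growth inhibition (inferred: compounds with an IC50 in retests scored well above the rest). Size under these conditions: about 69,000 compounds, about 760 of them at 50% or above in at least one test.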
B: 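Whole-cell growth test on Mycobacterium tuberculosis, read after 4 days in a medium based on cholesterol and the lipid DPPC; the read-out is not stated. Compounds at 50 µM. Direction is inferred from retests: higher values go with more growth inhibition. Size under these conditions: about 69,000 compounds, about 370 of them at 50% or above in at least one test.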

The filed quantity is “Percent Effect” (%). The controls that fix the scale are not given in the record; negative values are as filed. This is an unselected part of the compounds tested. Two or more numbers in one place are separate tests of the same structure; such repeats can differ widely.

SMILES | A | B
Cc1ncc(CNC(C)(C)CO)c2cc(C(=O)c3ccc(Br)cc3)oc12 | 6.95 | 20.77
N#Cc1cccc(CNc2ccc(F)cc2OCCO)c1 | 13.91 | -14.52
COc1ccc2c(c1)CCCN(C(C)C(=O)NC(C)C)C2 (stereo not given) | 28.71 | 3.743
Cc1cnn(CC2CCCN2C(=O)CCCc2nc(C)no2)c1 (stereo not given) | -11.51 and -65.59 | -20.15
N#Cc1ccnc(N2CCC(NCCN3CCOCC3)CC2)c1 | -29.83 and -3.302 | -7.082
Cc1ccc(N2CCN(C(=O)C3CN(C)C(=O)N3)CC2=O)cc1 (stereo not given) | -7.925 | -8.645
Cc1ccc([C@@H]2CN(S(=O)(=O)c3ccccc3)C[C@H]2N(C)C)cc1 | 2.165 and 3.785 | -5.888
O=C1CC(NS(=O)(=O)NCc2ccccc2)CN1c1ccccc1Cl (stereo not given) | -7.697 | -10.05
Cc1csc(N2CCC(NCC3(O)CCc4ccccc43)CC2)n1 (stereo not given) | 1.781 | -11.8
CC(C)C(=O)NCCCn1ncc2c(Cl)cccc21 | 8.401 | -20.14
CN(CCCNC(=O)C1CCc2cn[nH]c2C1)c1ccc(F)cc1 (stereo not given) | 33.48 | 7.901
CCn1nc2c(cc1=O)CN(Cc1nc(-c3ccsc3)no1)CC2 | -6.294 | -0.4602
O=C(O)C(F)(F)F.[H][C@@]12COC[C@]1(c1nc(C)no1)CN(C(C)C)C2 | -49.6 and -9.267 | -10.81
CN(Cc1nc(C2CC2)no1)C1CCCN(c2cccnn2)C1 (stereo not given) | 4.928 | 9.006
[H][C@@]12CCN(Cc3nccs3)[C@]1([H])CC[C@H](C(=O)N1CCN(C)CC1)O2 | 9.472 | 1.611 and -8.875
CN(C)CCN1CCOCC2(C1)CN(Cc1ccsc1)CCO2.O=C(O)C(F)(F)F.O=C(O)C(F)(F)F.O=C(O)C(F)(F)F (stereo not given) | -15.61 | 94.79
CCc1nnc(NC(=O)Cc2c(C)nc(C)[nH]c2=O)s1 | -0.0775 | -28.23
Cc1cnn(CC(C)NCc2cccnc2)c1 (stereo not given) | 33.93 | 15.77 and -9.869
O=C(Cc1nc(-c2ccncc2)n[nH]1)NCCCN1CCOCC1 | 5.873 | -7.063
[H][C@@]12CCN(Cc3ccc(C)o3)C[C@@]1([H])[C@H](C(=O)NCC1CC1)CCO2 | -6.702 and 8.53 | -28.21
CCn1cnnc1C1CCN(C(=O)c2ccc(Cl)cc2OC)CC1 | 24.87 | 8.885
CC(C)NC(=O)CCNC(=O)Nc1ccc(-n2cncn2)c(F)c1 | 0.1144 | -5.165
N#Cc1ccc(C(=O)N2CCCC3(C=Cc4ccccc4O3)CC2)cn1 (stereo not given) | -10.73 | 15.82 and 15.6
Cc1nnc(SCCNC(=O)CC2CCc3ccccc32)s1 (stereo not given) | 17.21 | 9.135
Cc1ncc(CNc2ccc(C(=O)NCc3ccco3)cc2C)s1 | 5.807 and 15.88 | -1.066
O=C(CCc1ccc(F)cc1)NCc1ccnc(NC2CC2)c1 | 10.74 | 16.79
Cc1nn(CC(=O)Nc2ccon2)c(C)c1Br | 15.35 | -0.5498
CS(=O)(=O)N[C@@H]1CCN(Cc2cccnc2)[C@H]1Cc1cccnc1 | -16.69 | -25.99
CCC(C)NC(=O)c1cc(Br)c2c(c1)OCCO2 (stereo not given) | 2.69 | 17.07
c1ccc2c(c1)nc1n2[C@@H](CNCc2nccs2)COC1 | 21.56 and -1.021 | 15.6
O=C(O)C(F)(F)F.[H][C@]12CN(Cc3nccs3)C[C@@]1([H])OCCN(C(=O)c1ccsc1)C2 | 1.52 | 5.51
Cc1nccc(-c2cccc(NCC(=O)NCC(=O)N3CCCC3)c2)n1 | 3.111 | -10.14
Cc1nc(C)c(CNCC2CCCn3ccnc32)s1 (stereo not given) | -0.8551 | 10.08
CC(C)c1ncc(C(=O)N(C)c2ccc(Br)cn2)s1 | 7.44 and 32.82 | 0.2385
Cl.O=c1c2sccc2nc2n1CCN(Cc1cc(F)ccc1F)CC2 | 60.16 | 47.09
N#Cc1nc(COc2ccc3c(c2)OCO3)oc1NC1CC1 | 38.07 | 40.93
O=C(NC1CC2(CCN(CCO)CC2)c2ccccc21)c1ccsc1.O=C(O)C(F)(F)F (stereo not given) | -19.04 and 12.73 | 12.03
Cc1nnc(N2CCCC3(CN(c4ccccn4)CCO3)C2)o1.O=C(O)C(F)(F)F (stereo not given) | 2.173 | -12.26
CN(CC1CCCCO1)c1nncc(-c2cccc(F)c2)n1 (stereo not given) | 38 | 44.05
Cc1nc(Nc2nncs2)cc(C2CCCN2C)n1 (stereo not given) | -48.79 | -6.699
Cn1ccc(CN2CCC(CCc3ccc(O)cc3)CC2)cc1=O | 11.16 | -1.515
CN(C)CCn1c2c(ccc1=O)CCN(Cc1ccncc1)CC2 | -23.31 | -13.75
CCN(CC)Cc1cc(=O)n2c(n1)CN(S(=O)(=O)C1CC1)CCC2.O=C(O)C(F)(F)F | 3.798 | 0.4704
O=C(O)C(F)(F)F.c1coc(CN2CCC3(CCOCC3COCC3CC3)CC2)c1 (stereo not given) | 12.84 | 4.277
COc1ccc(OC)c(Sc2ncccc2C(=O)N(C)CCC#N)c1 | -17.39 | -25.01
OCCC[C@@H]1CN(c2ncc(Cl)cc2Cl)CC[C@@H]1N1CCOCC1 | 1.435 | -13.79
CC(C)C1CN(Cc2nccn2C(C)C)CCC(=O)N1CC1CC1 (stereo not given) | -22.81 | -7.594
COc1nccnc1N1CCN(Cc2cccc(F)c2)C(=O)C1 | -0.2789 and 8.043 | -20.33
O=S(=O)(c1cccnc1)N1CCN(CC(O)c2ccccc2)CC1 (stereo not given) | -4.144 | -13.99
COc1c(Cl)cc(C(=O)NCc2n[nH]c(C)n2)cc1Cl | 19.73 | -10.04
O=C(O)C(F)(F)F.[H][C@@]12CCN(Cc3ccccc3)[C@@]1([H])CC(=O)N2CCOC | 37.09 | 13.64 and 18.57
Cc1csc(CNC(=O)NCC(O)c2ccc(F)cc2)n1 (stereo not given) | 8.758 and -3.145 | -8.237

5 of the entries, repeated:

| SMILES | A | B |
|---|---|---|
| `[H][C@@]12CCN(Cc3nccs3)[C@]1([H])CC[C@H](C(=O)N1CCN(C)CC1)O2` | 9.472 | 1.611 and -8.875 |
| `CN(CCCNC(=O)C1CCc2cn[nH]c2C1)c1ccc(F)cc1` (stereo not given) | 33.48 | 7.901 |
| `CCn1nc2c(cc1=O)CN(Cc1nc(-c3ccsc3)no1)CC2` | -6.294 | -0.4602 |
| `COc1ccc(OC)c(Sc2ncccc2C(=O)N(C)CCC#N)c1` | -17.39 | -25.01 |
| `CC(C)C(=O)NCCCn1ncc2c(Cl)cccc21` | 8.401 | -20.14 |